Over roughly 33,000 sequences, “E-score (-0.5 to 0.5)” has its median near -0.015; the highest 2% begin near 0.3. Some of the results follow.
What follows are sequences tested against T1, Abf1 (UniProt P14164) (assay: PBM E-score (8-mer binding enrichment) (E-score (-0.5 to 0.5)); higher = stronger / more preferred TF binding). Details: protein concentration: 200 nM; construct: GST-full length.
T1 sequence: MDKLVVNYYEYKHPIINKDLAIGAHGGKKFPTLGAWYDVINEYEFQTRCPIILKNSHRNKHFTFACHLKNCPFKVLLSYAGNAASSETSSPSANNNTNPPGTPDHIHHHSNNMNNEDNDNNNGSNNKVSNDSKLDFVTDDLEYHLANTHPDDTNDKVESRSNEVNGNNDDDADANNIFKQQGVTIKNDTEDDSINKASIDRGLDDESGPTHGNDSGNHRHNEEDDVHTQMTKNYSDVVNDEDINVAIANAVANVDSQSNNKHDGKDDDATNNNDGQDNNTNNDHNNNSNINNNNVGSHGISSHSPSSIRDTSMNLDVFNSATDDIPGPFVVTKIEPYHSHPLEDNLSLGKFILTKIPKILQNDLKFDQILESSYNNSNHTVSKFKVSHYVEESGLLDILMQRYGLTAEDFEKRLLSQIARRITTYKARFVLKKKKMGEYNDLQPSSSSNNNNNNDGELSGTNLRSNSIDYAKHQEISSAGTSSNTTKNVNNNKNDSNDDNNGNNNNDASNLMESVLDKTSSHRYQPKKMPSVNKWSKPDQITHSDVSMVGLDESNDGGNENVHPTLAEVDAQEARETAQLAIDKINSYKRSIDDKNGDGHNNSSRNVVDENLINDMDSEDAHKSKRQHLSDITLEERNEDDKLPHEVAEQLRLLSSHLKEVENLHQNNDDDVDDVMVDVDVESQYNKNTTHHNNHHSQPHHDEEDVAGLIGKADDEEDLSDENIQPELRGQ
Description: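 Universal 'all 10-mer' protein binding microarrays (Agilent AMADID 015681) probed with GST-tagged S. cerevisiae TFs (full-length or DBD) made by in vitro transcription/translation (PURExpress), about 100-200 nM. Bound TF was detected with fluorescent anti-GST. Each ungapped 8-mer (which stands for itself and its reverse complement) is scored by the PBM enrichment score (E-score), a modified Wilcoxon-Mann-Whitney statistic from -0.5 to +0.5, computed with the Universal PBM Analysis Suite. Scale: above 0.35 generally sequence-specific binding.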

Sequence	PBM E-score
GCATTCGC	0.0337
AATGATCA	0.347
AACGGTAC	0.218
AGCCAGCA	-0.239
TGAGTCAA	0.112
CTACTTTA	-0.0253
CTCGTGTC	0.118
GCCTCAGC	-0.143
AATTATGC	0.0539
GAGCAGTA	0.176
CCGCCCGG	-0.265
CATCTATA	-0.0136
CTCTGAAA	-0.0176
ATTAAGCC	0.0493
AGCGACCA	0.0713
CGGACGTA	0.0357
AATTAGGT	0.043
CCGCCGAC	-0.0124
ATCGAATC	0.0398
GCAAATGC	-0.112
ACTAGGAA	-0.109
CGTTAGTC	0.00116

Reformatted with bars between the fields: part of the list above
Sequence | PBM E-score
CCGCCCGG | -0.265
CATCTATA | -0.0136
CTCTGAAA | -0.0176
ATTAAGCC | 0.0493
AGCGACCA | 0.0713

(list continues)

Sequence	PBM E-score
ATCTCCCG	-0.0535
AAACGCGG	-0.106
ATGGCTAA	-0.0715
ATAGCTAA	-0.00918
CAGTTCTA	-0.0197
CTCTACAG	-0.12
GTTCACGA	0.3
AAGATTCT	-0.112
GGATGTAC	0.0514
CGTGCCAA	0.0589
TCACGCAA	0.246
CGTCACTC	0.173
AGGGGCTA	-0.284
AAATAAAT	0.241
CATGTGCG	-0.0711
GAGCTGTA	-0.171
CCCTGTTA	-0.0954
GGCGGCAC	-0.161
AGTGGTGG	-0.185
CTGGGTCA	0.00167
TATAGATA	0.0107
ATGGACTC	-0.134

Sequence	PBM E-score
ATTCAACG	0.173
ATTGTAAA	0.121
ACCTATAC	0.108
CCCTCATA	-0.252
ATACTTAG	-0.0263
GGCCTGCA	-0.337
AGTTTTCG	0.00304
GGGGCAAC	-0.111
AAGCCCCC	-0.352
GCATGGGC	-0.249
TACCACCA	-0.0711
ATTTCTGA	0.0752
CTAAACGC	-0.0858
GGGAGTTA	-0.187
CGGACCAA	0.108
CGGGTCTC	-0.21
AACCAGAT	0.0748
ACCGTAAC	-0.0719
AGACTAAC	-0.111
GTTTCTGA	-0.0568
TGCTCGAA	0.00967
CCCTAAAC	-0.266

Sequence	PBM E-score
ATAGAATG	0.12
CGCGAGCA	-0.163
AGGGGGCG	-0.33
CAACTGTG	0.0339
AGTCTACA	-0.172
CATGCCGA	0.0631
AGTTCAAC	-0.0212
ATACTCAA	0.0438
CATACGAC	0.333
CTCCAACA	-0.0924
CATTAGGC	0.0172
ACCGTTTA	0.184
AAGTTAAG	-0.244
ATTAGTGG	0.1
CTCTATAC	0.116
AGCGCTAA	0.0295
TCTAGAAA	-0.00368
TAATACGA	0.337
AGACCTAA	-0.206
CAATCCCC	0.0488

— the supplement of paper PMC3334620
